Reference: the supplement of paper PMC10849652
This is one part of the list.

Protein sequences, listed by entry. Tags and fused reporters are not part of them. Lines headed by an entry give the natural chain unless they say otherwise; changes in a name come on top.
UniProt P51811: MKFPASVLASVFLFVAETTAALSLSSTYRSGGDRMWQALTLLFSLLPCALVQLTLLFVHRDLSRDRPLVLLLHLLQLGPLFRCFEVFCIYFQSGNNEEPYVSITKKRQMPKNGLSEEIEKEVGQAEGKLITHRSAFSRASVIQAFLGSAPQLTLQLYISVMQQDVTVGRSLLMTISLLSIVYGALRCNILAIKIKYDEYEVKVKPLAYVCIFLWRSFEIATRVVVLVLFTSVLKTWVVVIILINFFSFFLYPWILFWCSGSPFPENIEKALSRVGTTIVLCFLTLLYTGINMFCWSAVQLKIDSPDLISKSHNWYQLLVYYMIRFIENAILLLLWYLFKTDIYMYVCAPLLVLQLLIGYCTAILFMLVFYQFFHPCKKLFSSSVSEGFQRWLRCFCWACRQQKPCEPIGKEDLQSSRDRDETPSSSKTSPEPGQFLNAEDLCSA
UniProt O75191: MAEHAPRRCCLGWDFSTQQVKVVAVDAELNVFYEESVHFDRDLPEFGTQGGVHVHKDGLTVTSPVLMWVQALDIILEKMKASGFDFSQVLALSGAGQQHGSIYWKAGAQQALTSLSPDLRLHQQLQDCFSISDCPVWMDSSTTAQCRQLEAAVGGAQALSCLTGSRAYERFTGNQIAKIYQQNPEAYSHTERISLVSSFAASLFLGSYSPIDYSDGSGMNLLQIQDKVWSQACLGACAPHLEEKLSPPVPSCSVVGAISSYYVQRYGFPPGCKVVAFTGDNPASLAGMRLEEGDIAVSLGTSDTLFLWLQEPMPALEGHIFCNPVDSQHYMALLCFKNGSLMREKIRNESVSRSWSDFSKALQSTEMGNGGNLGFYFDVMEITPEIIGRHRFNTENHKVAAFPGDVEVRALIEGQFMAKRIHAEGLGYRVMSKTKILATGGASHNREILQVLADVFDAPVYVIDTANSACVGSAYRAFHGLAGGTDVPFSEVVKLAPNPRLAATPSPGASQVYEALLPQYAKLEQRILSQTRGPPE
UniProt Q8IY57: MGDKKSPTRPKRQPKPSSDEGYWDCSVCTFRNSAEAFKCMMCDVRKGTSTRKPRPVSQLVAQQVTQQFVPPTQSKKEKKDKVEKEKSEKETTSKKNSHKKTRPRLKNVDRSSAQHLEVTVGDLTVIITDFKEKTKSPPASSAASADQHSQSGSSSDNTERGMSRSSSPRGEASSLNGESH
UniProt O60293: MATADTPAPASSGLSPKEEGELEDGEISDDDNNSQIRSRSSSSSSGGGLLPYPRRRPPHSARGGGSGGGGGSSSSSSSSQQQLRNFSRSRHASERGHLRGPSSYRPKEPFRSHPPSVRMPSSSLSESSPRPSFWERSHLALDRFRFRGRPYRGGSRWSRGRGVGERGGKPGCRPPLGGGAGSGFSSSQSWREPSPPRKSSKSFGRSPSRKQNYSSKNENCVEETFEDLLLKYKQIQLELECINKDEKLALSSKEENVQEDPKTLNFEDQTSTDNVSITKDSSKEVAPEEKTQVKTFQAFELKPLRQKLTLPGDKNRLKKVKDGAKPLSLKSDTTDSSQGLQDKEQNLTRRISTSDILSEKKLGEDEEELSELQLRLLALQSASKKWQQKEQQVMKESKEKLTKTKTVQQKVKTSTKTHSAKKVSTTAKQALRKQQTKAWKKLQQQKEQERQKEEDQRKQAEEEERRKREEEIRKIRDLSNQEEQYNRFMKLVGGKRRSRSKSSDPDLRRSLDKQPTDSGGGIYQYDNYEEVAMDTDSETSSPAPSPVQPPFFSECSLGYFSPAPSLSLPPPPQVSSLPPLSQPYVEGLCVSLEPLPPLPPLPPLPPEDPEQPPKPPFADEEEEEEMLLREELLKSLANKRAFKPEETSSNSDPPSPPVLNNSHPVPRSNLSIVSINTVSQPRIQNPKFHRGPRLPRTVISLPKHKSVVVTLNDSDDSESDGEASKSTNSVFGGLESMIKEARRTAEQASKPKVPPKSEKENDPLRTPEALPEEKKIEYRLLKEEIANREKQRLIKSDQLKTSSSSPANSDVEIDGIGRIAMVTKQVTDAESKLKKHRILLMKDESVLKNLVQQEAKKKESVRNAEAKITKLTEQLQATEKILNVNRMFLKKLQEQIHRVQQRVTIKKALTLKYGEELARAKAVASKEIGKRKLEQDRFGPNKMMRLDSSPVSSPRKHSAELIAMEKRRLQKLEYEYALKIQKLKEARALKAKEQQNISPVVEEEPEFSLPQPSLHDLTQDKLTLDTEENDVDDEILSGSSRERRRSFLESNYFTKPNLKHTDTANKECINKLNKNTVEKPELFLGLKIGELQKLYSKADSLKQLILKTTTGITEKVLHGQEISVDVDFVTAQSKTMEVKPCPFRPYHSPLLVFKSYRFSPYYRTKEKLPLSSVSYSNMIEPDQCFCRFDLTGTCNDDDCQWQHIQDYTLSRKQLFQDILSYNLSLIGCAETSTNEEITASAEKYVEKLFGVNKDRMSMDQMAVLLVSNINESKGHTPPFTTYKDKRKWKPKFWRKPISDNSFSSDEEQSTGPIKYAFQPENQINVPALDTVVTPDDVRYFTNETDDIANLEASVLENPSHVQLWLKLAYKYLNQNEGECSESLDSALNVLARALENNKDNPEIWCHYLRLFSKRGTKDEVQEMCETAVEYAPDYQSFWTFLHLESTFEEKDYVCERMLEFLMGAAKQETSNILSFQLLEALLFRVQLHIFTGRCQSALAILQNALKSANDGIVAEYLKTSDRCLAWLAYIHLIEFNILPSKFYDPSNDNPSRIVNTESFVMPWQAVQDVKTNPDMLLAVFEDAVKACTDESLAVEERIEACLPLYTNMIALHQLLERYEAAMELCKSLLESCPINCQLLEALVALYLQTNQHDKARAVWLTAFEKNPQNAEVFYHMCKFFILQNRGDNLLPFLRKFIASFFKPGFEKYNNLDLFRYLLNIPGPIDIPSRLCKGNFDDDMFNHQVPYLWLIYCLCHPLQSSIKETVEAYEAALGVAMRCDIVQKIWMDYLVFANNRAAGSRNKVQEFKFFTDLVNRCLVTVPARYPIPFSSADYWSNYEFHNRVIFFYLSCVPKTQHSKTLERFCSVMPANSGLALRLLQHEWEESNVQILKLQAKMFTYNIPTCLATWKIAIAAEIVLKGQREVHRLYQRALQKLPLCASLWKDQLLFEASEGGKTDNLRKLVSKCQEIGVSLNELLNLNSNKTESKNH
UniProt Q96DA0: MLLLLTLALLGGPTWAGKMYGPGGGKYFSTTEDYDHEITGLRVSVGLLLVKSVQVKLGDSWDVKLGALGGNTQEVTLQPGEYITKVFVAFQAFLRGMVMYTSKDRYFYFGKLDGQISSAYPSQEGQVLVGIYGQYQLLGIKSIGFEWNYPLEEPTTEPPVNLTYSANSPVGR
UniProt Q9HCC9: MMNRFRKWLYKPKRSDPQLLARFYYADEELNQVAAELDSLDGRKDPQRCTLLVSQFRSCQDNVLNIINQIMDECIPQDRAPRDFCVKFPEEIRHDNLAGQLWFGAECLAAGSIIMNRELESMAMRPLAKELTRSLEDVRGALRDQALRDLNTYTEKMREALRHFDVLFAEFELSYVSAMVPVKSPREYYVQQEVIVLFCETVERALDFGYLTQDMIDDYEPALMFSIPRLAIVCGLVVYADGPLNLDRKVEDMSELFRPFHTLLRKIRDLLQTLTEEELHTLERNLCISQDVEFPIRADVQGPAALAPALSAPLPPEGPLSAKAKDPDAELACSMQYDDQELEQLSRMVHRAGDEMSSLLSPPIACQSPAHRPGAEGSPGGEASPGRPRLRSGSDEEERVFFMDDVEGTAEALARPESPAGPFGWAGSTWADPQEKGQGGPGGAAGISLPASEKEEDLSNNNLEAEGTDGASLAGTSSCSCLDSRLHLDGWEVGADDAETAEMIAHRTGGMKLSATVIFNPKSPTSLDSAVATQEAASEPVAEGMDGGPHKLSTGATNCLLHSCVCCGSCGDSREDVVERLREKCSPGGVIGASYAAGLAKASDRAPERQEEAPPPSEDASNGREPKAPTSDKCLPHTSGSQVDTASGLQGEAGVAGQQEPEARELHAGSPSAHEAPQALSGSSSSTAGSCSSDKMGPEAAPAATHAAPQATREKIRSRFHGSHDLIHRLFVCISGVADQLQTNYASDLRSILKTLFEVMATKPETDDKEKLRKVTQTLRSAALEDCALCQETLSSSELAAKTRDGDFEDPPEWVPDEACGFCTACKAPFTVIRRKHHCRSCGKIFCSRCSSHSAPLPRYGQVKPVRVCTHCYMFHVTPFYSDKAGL
UniProt Q9H6R6: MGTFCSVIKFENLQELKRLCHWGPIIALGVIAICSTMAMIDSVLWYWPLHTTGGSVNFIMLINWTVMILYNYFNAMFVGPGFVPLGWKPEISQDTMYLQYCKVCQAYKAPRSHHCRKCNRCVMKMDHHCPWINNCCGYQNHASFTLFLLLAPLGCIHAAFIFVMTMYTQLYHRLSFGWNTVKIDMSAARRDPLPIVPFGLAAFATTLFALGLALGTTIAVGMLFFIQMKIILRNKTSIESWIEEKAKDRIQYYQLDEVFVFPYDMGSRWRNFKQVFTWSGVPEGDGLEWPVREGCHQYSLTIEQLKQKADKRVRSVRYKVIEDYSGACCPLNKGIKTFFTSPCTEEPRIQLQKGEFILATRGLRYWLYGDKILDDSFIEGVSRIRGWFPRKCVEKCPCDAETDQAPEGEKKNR
UniProt Q8WW38: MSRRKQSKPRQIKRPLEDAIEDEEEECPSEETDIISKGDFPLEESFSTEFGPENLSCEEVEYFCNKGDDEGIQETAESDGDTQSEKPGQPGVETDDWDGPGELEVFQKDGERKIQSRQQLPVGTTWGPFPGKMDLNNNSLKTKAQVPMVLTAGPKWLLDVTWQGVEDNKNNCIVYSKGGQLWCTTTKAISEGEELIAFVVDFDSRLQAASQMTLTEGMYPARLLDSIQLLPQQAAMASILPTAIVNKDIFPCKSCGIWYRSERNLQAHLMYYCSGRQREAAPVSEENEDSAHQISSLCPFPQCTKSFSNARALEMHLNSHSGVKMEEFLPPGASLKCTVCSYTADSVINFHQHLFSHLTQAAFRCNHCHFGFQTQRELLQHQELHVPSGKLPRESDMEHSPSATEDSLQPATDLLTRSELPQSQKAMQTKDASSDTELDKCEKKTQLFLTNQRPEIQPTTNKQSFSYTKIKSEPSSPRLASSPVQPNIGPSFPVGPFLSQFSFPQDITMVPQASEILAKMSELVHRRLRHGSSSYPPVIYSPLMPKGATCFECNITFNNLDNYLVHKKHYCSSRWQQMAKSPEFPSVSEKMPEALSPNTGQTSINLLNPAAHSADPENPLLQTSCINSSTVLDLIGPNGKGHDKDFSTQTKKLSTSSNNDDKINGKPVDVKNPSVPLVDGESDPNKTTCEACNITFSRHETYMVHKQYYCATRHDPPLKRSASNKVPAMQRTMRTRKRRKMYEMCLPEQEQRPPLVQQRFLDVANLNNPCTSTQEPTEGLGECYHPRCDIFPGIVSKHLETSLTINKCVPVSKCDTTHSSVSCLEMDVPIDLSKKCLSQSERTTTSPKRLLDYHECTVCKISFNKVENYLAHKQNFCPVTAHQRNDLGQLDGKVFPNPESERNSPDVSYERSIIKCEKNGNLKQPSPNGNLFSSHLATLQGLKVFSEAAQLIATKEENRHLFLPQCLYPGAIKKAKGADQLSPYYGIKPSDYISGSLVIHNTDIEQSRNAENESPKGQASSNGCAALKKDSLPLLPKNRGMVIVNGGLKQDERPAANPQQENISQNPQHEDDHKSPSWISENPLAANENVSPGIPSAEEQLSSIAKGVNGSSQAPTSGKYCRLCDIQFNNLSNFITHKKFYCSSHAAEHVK
UniProt P17010: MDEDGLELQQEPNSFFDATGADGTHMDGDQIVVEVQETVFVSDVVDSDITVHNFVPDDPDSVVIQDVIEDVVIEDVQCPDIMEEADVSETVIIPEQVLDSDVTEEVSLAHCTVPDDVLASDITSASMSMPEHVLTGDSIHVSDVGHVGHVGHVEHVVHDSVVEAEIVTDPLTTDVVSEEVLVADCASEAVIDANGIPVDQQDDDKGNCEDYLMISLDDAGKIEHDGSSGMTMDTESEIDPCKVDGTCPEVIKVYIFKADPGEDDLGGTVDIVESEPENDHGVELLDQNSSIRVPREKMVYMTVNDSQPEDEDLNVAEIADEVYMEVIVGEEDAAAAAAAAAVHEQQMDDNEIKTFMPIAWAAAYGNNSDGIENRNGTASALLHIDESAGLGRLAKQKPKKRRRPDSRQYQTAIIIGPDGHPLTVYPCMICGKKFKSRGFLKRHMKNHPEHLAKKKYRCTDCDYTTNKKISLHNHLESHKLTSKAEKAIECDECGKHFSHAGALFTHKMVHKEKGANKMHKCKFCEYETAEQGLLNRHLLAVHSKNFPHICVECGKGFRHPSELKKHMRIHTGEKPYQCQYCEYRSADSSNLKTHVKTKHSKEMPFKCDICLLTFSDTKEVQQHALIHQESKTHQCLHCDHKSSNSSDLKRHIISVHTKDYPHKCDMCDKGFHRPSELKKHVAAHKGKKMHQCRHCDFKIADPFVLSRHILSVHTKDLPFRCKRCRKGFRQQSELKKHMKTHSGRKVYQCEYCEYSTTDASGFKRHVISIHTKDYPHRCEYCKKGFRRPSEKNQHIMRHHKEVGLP

How the values were obtained:
Assay in all cases: log2 fold change, soluble protein after heating vs DMSO (PISA); higher = thermal stabilisation; K562 cells, 10 uM, 30 min; active = over 0.2 and 3.5 SD of the protein, either way, in both replicates (recomputed)
[1] = compound: C#Cc1cccc(Nc2ncnc3cc(OCCOC)c(OCCOC)cc23)c1 [erlotinib]
How it was run: (§1)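 Soluble protein was quantified by TMTpro 16plex LC-MS/MS after channel sums were equalised. It was obtained as the supernatant after 21,000xg for 90 min from pooled aliquots of K562 cells (2×10^6 cells/mL, 10 μM compound, 30 min) heated for 3 min across 48°C-58°C and extracted in PBS with 0.5% NP-40 at 4°C. Thermal stability values are relative to control samples and come from duplicates. They are given as log2 fold changes.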

[2] = compound: C/C(=N\NC(=O)C1=CC(=CC=C1)S(=O)(=O)N2CCOCC2)/C3=C(C=CC(=C3)Cl)O
How it was run: as §1

[3] = compound: C1=CC(=C(C=C1Cl)C2=NC3=NC=CN=C3C(=N2)NC4=CC=NC=C4)F
How it was run: as §1

[4] = compound: C1=CC(=CC=C1C2=NC3=C(N2)C=C(C=C3)C(=O)N)OC4=CC=C(C=C4)Cl
How it was run: as §1

[5] = compound: C1=CC2=C(C=CC(=C2)/C=C\3/C(=O)NC(=NCC4=CC=CS4)S3)N=C1
How it was run: as §1

[6] = compound: C1=CC2=NC=CN=C2C=C1/C=C/3\C(=O)NC(=O)S3
How it was run: as §1

[7] = compound: C1=CC=C(C=C1)C2=NC(=C(N2)C3=CC=NC=C3)C4=CC(=C(C=C4)Cl)O
How it was run: as §1

[8] = compound: C1=CC=C2C(=C1)C3=NNC4=CC=CC(=C43)C2=O
How it was run: as §1

[9] = compound: C1CCN(C1)C(=O)NC2=CC=CC(=C2)NC3=NC=C(C(=N3)NCCC4=CN=CN4)Br
How it was run: as §1

[10] = compound: C1CN(CCC1(CC2=CC=C(C=C2)Cl)N)C3=NC=NC4=C3C=CN4
How it was run: as §1

Measured: log2 fold change

XRCC6 (UniProt P12956)
inactive: [1] 0.025 | [2] 0.103 | [3] 0.093 | [4] 0.011 | [5] 0.065 | [6] 0.031 | [7] -0.023 | [8] -0.036 | [9] -0.043 | [10] -0.025

XK (UniProt P51811)
inactive: [1] -0.018 | [2] -0.134 | [4] 0.002 | [5] -0.135 | [6] -0.064 | [8] -0.071

ZEB1 isoform 2 (UniProt P37275)
inactive: [1] -0.057 | [2] 0.083 | [4] 0.164 | [5] -0.016 | [6] -0.022 | [8] -0.014 | [9] 0.263 | [10] 0.117

YOD1 (UniProt Q5VVQ6)
inactive: [1] 0.064 | [2] 0.053 | [3] 0.021 | [4] 0.019 | [5] 0.066 | [6] 0.129 | [7] -0.02 | [8] 0.012 | [9] -0.012 | [10] -0.037

YWHAG (UniProt P61981)
inactive: [1] 0.012 | [2] 0 | [3] 0.077 | [4] -0.01 | [5] -0.145 | [6] -0.024 | [7] 0.038 | [8] 0.02 | [9] -0.009 | [10] 0.056

XRCC3 (UniProt O43542)
inactive: [1] 0.043 | [2] 0.05 | [3] 0.034 | [4] -0.068 | [5] 0.003 | [6] -0.01 | [7] 0.03 | [8] -0.001 | [9] -0.02 | [10] 0.04

ZBTB10 (UniProt Q96DT7)
inactive: [1] 0.058 | [2] 0.035 | [3] -0.046 | [4] 0.038 | [5] -0.193 | [6] 0.272 | [8] 0.076 | [9] -0.063 | [10] -0.132

XIRP2 isoform 8 (UniProt A4UGR9)
inactive: [1] -0.014 | [2] -0.258 | [4] 0.078 | [5] 0.063 | [6] 0.104 | [8] 0.012 | [9] -0.137 | [10] 0.078

XYLB (UniProt O75191)
inactive: [1] -0.187 | [3] 0.112 | [4] -0.018

YAF2 isoform 5 (UniProt Q8IY57)
inactive: [1] -0.109 | [2] -0.038 | [3] 0.033 | [4] 0.042 | [5] 0.065 | [6] -0.068 | [7] 0.235 | [8] -0.113 | [9] 0.049 | [10] -0.104

XPOT (UniProt O43592)
inactive: [1] -0.035 | [2] 0.069 | [3] 0.005 | [4] -0.058 | [5] 0.037 | [6] 0.065 | [7] -0.047 | [8] -0.026 | [9] -0.005 | [10] -0.088

ZFYVE21 isoform 2 (UniProt Q9BQ24)
inactive: [1] 0.074 | [2] 0.262 | [4] 0.017 | [5] -0.04 | [7] 0.044 | [8] -0.05 | [9] 0.077 | [10] 0.097

ZKSCAN4 (UniProt Q969J2)
inactive: [2] -0.153 | [5] -0.076 | [7] -0.221 | [8] -0.056 | [9] -0.065 | [10] -0.014

ZDHHC12 isoform 3 (UniProt Q96GR4)
inactive: [2] 0.057 | [5] -0.005 | [8] -0.012 | [9] -0.06 | [10] -0.244

YTHDC2 (UniProt Q9H6S0)
inactive: [2] -0.117 | [3] -0.165 | [5] -0.091 | [8] 0.108

ZDHHC16 (UniProt Q969W1)
inactive: [1] 0.061 | [4] -0.024

ZBED1 (UniProt O96006)
inactive: [2] 0.213 | [3] -0.015 | [5] 0.107 | [6] -0.007 | [8] -0.05 | [9] -0.003 | [10] -0.072

YBX1 (UniProt C9J5V9)
inactive: [2] 0.233 | [5] -0.002 | [8] -0.143

ZBTB17 isoform 2 (UniProt Q13105)
inactive: [1] -0.048 | [4] 0.03 | [6] 0.171 | [9] -0.014 | [10] -0.199

ZFC3H1 (UniProt O60293)
inactive: [2] -0.096 | [5] 0.214 | [6] 0.018 | [7] -0.086 | [8] -0.068

XYLT2 (UniProt Q9H1B5)
inactive: [3] -0.137

ZG16B (UniProt Q96DA0)
inactive: [2] 0.349 | [5] 0.085 | [6] -0.076 | [8] 0.535

ZFHX4 isoform 5 (UniProt Q86UP3)
inactive: [1] 0 | [4] 0.173 | [9] -0.016 | [10] -0.074

ZKSCAN8 (UniProt Q15776)
inactive: [3] -0.186 | [7] -0.004 | [9] 0.004 | [10] -0.066

ZFP36L2 (UniProt P47974)
inactive: [1] 0.143 | [4] -0.176

ZDHHC8 isoform 3 (UniProt Q9ULC8)
inactive: [3] 0.028 | [6] -0.002 | [9] 0.06 | [10] 0.063

ZDHHC9 (UniProt Q9Y397)
inactive: [7] -0.085

ZC3H11A (UniProt O75152)
inactive: [6] 0.095

XRN1 (UniProt Q8IZH2)
inactive: [3] -0.297 | [6] -0.17 | [7] -0.015 | [9] -0.168 | [10] -0.052

ZFYVE28 (UniProt Q9HCC9)
inactive: [1] 0.037 | [4] 0.008 | [6] -0.189

ZBTB34 (UniProt Q8NCN2)
inactive: [2] -0.019 | [5] -0.078 | [8] -0.14

ZDHHC6 (UniProt Q9H6R6)
inactive: [3] -0.083

ZFPM2 (UniProt Q8WW38)
inactive: [2] -0.046 | [5] 0.091 | [8] 0.115 | [9] 0.078 | [10] 0.053

ZC3H7B (UniProt Q9UGR2)
inactive: [7] -0.81 | [9] -0.261 | [10] 0.124

ZBTB44 (UniProt Q8NCP5)
inactive: [2] 0.02 | [5] 0.011 | [8] -0.249

ZBTB14 (UniProt O43829)
inactive: [1] -0.031 | [4] 0.255 | [6] 0 | [7] -0.007 | [9] -0.016 | [10] -0.008

YIPF1 (UniProt Q9Y548)
inactive: [1] 0.007 | [4] 0.018 | [6] 0 | [9] -0.024 | [10] -0.088

YWHAZ (UniProt E7ESK7)
inactive: [2] -0.037 | [3] 0.099 | [5] -0.13 | [6] -0.01 | [7] -0.068 | [8] 0.008 | [9] -0.031 | [10] 0.07

ZNF106 (UniProt Q9H2Y7)
inactive: [6] 0.058

Looked up one by one from the entries so far, 5 records:
ZDHHC6 (UniProt Q9H6R6)
inactive: [3] -0.083

ZBTB14 (UniProt O43829)
inactive: [1] -0.031 | [4] 0.255 | [6] 0 | [7] -0.007 | [9] -0.016 | [10] -0.008

ZFPM2 (UniProt Q8WW38)
inactive: [2] -0.046 | [5] 0.091 | [8] 0.115 | [9] 0.078 | [10] 0.053

YWHAZ (UniProt E7ESK7)
inactive: [2] -0.037 | [3] 0.099 | [5] -0.13 | [6] -0.01 | [7] -0.068 | [8] 0.008 | [9] -0.031 | [10] 0.07

ZBTB44 (UniProt Q8NCP5)
inactive: [2] 0.02 | [5] 0.011 | [8] -0.249

(listing goes on)

XP32 (UniProt Q5T750)
inactive: [2] 0.011 | [5] 0.147 | [6] -0.01 | [7] -0.274 | [8] -0.611

ZDHHC2 (UniProt Q9UIJ5)
inactive: [6] 0.033 | [7] 0.006

ZNF22 (UniProt P17026)
inactive: [1] -0.326 | [4] 0.094 | [7] -0.1 | [9] 0.044 | [10] 0.071

ZNF131 (UniProt P52739)
inactive: [3] -0.212 | [6] -0.149 | [7] 0.355

ZFAND1 (UniProt Q8TCF1)
inactive: [1] -0.102 | [4] -0.01 | [6] -0.006 | [7] 0.038 | [9] -0.251 | [10] 0.063

ZFX isoform 3 (UniProt P17010)
inactive: [9] -0.086 | [10] -0.312

ZBTB7B isoform 2 (UniProt O15156)
inactive: [9] -0.241 | [10] -0.505

XPA (UniProt P23025)
inactive: [2] 0.034 | [3] -0.014 | [5] 0.084 | [7] -0.12 | [8] -0.006 | [9] -0.174 | [10] -0.026

YIPF2 (UniProt Q9BWQ6)
inactive: [3] -0.264 | [6] -0.048 | [7] -0.138 | [9] 0.071 | [10] 0.433

YBEY (UniProt P58557)
inactive: [1] 0.199 | [4] 0.11 | [7] 0.18

ZNF225 (UniProt Q9UK10)
inactive: [2] -0.461 | [5] 0.011 | [6] -0.032 | [8] 0

ZMYM2 (UniProt Q9UBW7)
inactive: [6] -0.078
